Results: paper PMC9896697
No constants are given. Whether binding was seen depends on the method and setting. In cells and extracts the contact can be indirect. Some binding calls cover weakened binding; strength is not graded here. For some assays here: Where a sequence is shown, tags or fusion partners need not be part of it.

The chains behind the UniProt entries cited, without tags or fusion partners.
UniProt P46934: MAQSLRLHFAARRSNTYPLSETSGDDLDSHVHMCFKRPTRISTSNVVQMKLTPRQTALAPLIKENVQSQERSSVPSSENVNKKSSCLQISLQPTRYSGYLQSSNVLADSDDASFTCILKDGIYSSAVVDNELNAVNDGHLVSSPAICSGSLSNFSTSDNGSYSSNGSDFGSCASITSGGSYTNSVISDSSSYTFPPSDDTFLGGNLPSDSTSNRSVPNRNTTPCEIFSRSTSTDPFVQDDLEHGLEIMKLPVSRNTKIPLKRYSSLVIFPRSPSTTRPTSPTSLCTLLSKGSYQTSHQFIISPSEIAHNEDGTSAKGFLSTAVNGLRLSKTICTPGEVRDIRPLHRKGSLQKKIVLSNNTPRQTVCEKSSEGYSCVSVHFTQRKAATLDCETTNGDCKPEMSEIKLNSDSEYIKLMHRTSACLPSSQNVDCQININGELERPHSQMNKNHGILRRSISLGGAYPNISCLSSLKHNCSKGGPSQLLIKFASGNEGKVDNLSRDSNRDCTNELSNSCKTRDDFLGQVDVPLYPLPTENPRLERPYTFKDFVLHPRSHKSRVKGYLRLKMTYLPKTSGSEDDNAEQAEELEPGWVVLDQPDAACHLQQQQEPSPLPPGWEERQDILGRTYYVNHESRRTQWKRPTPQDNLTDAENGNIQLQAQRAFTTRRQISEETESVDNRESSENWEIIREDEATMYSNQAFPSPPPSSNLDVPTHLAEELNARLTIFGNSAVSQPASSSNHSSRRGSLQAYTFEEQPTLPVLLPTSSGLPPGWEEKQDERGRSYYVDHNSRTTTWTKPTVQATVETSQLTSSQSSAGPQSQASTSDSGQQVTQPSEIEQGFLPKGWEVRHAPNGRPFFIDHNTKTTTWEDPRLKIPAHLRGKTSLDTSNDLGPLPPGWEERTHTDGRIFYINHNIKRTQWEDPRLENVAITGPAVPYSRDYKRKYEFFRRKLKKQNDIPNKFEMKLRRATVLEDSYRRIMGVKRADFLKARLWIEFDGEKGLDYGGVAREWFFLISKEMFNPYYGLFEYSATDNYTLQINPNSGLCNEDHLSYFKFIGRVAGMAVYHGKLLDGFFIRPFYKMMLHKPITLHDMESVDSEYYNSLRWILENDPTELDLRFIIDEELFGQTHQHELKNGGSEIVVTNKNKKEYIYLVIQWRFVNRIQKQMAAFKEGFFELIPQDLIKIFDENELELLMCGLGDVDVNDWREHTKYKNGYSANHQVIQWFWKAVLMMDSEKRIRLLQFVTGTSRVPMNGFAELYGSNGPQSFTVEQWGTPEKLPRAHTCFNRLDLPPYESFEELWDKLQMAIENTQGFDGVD
UniProt Q96P20: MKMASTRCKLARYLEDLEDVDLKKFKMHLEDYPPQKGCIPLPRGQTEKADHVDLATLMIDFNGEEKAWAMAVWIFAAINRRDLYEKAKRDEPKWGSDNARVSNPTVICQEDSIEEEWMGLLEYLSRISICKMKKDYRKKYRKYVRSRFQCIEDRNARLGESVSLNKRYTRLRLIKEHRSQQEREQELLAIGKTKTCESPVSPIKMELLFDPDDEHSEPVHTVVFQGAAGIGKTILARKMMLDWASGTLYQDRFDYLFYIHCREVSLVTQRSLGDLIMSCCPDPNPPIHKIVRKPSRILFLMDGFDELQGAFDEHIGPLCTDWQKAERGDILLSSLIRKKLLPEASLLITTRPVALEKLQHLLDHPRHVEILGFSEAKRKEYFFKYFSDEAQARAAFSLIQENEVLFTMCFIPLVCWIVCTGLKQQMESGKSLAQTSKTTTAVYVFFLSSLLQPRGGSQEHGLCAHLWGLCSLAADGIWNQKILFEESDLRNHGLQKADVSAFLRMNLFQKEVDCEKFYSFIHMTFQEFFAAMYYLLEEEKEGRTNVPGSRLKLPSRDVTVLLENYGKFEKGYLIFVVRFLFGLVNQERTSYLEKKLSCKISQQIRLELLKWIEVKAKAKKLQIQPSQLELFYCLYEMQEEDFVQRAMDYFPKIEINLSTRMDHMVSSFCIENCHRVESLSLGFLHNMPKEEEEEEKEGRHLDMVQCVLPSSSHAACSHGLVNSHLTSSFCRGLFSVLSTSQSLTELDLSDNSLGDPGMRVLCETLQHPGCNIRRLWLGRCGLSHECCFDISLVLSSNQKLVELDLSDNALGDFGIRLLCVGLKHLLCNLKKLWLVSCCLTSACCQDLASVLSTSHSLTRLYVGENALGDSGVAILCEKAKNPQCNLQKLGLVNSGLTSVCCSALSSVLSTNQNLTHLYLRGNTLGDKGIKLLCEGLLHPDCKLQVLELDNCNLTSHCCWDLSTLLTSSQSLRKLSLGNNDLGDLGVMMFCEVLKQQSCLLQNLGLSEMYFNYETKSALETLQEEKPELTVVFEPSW

Columns and labels:
Myc-SF3A2 = target: T1, Myc-SF3A2 (UniProt Q15428); assay: co-IP; HEK293T cells transfected with Myc-SF3A2 and HA-UB, with empty vector or Flag-NEDD4; lysates immunoprecipitated (legend names an anti-RIP1 antibody), with or without LPS and Nig
T1 sequence: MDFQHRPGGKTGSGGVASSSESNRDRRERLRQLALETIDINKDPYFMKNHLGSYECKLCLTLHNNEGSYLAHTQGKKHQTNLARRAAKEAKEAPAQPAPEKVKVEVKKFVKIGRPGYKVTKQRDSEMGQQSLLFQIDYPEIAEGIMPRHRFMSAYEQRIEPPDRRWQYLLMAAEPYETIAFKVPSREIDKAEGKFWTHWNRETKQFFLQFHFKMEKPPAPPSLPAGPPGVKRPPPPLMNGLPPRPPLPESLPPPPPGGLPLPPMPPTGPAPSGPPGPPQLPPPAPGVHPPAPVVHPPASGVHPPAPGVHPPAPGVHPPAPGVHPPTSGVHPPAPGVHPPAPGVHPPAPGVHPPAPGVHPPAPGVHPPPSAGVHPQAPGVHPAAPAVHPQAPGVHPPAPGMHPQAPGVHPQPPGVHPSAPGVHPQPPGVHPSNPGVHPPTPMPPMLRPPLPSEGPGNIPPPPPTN

[1] = target: T2, SF3A2 (endogenous, THP-1 cells) (human (endogenous in THP-1)) (UniProt Q15428); assay: co-IP; lysates of THP-1 cells, resting or treated with LPS 4 h then Nig 1 h, immunoprecipitated with anti-SF3A2 antibody
T2 sequence: T1 sequence

binding (Myc-SF3A2) | binding [1] | Substance
binds | – | Flag-NEDD4 (from UniProt P46934 1-1319) (enzyme)
– | binds | NLRP3 (endogenous, THP-1 cells) (from UniProt Q96P20 1-1036)
